# Measurements reported in PubChem BioAssay AID1224830 (NIAID, 2016).
# Assay: 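Host factors that control LPS-induced TNF expression in human macrophages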 (primary screen)
# Cells: human THP-1 monocytic leukaemia cells, TNF dual-luciferase reporter clone, PMA-differentiated to macrophage-like cells
# Reagent: siRNA pool against human genes, 50 nM
# Time to read-out: LPS for 4 h, given about 3 days after siRNA transfection
# Conditions: bacterial LPS (TLR4 ligand), 10 ng/ml
# Detection: 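Ratio of firefly to renilla light, scaled to the plate median and expressed as a robust z-score per replicate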
# Direction: TNF reporter robust z-score: higher = stronger TNF reporter response to LPS
# Active means: 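a well is active when its z-score exceeds 2.8 or falls below -1.5; control wells carry no call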
# This is one part, drawn at random, of about 18,000 reagents. About 2,900 of all reagents (16%) count as active. 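Calls are made per well; low scores hint the gene aids the LPS response, high scores that it dampens it.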 Repeated entries: four replicate wells of each siRNA pool. No sequences are given here.
target gene,TNF reporter robust z-score,activity call
RGPD7 (retired record),1.3,inactive
RGPD7 (retired record),1.48,inactive
RGPD7 (retired record),1.04,inactive
RGPD7 (retired record),0.3,inactive
CCDC74A,-1.24,inactive
CCDC74A,-0.75,inactive
CCDC74A,-0.5,inactive
CCDC74A,-0.36,inactive
UNC13B,1.38,inactive
UNC13B,-0.2,inactive
UNC13B,0.91,inactive
UNC13B,0.98,inactive
MND1,1.01,inactive
MND1,-0.48,inactive
MND1,-0.31,inactive
MND1,-0.65,inactive
ASPH,-0.33,inactive
ASPH,0.13,inactive
ASPH,0.24,inactive
ASPH,0.32,inactive
CXorf38,-0.74,inactive
CXorf38,-0.76,inactive
CXorf38,-1.33,inactive
CXorf38,0.33,inactive
DNAJC25,-0.95,inactive
DNAJC25,-1.2,inactive
DNAJC25,-1.24,inactive
DNAJC25,-0.99,inactive
AKAP7,-0.6,inactive
AKAP7,-0.19,inactive
AKAP7,-0.79,inactive
AKAP7,0.17,inactive
H4C16,1.44,inactive
H4C16,1.05,inactive
H4C16,0.34,inactive
H4C16,0.56,inactive
TSPYL1,-0.49,inactive
TSPYL1,-0.93,inactive
TSPYL1,-0.64,inactive
TSPYL1,1.2,inactive

The list goes on, starting with the last 6 of the part before.
target gene,TNF reporter robust z-score,activity call
H4C16,0.34,inactive
H4C16,0.56,inactive
TSPYL1,-0.49,inactive
TSPYL1,-0.93,inactive
TSPYL1,-0.64,inactive
TSPYL1,1.2,inactive
CCAR2,0.01,inactive
CCAR2,0.61,inactive
CCAR2,0.14,inactive
CCAR2,0.05,inactive
MYBPC1,1.15,inactive
MYBPC1,1.5,inactive
MYBPC1,-0.49,inactive
MYBPC1,1.55,inactive
KCNS3,0.65,inactive
KCNS3,0.26,inactive
KCNS3,0.84,inactive
KCNS3,3.64,active
SYNGR2,-0.63,inactive
SYNGR2,-0.06,inactive
SYNGR2,1.21,inactive
SYNGR2,1.37,inactive
NT5C1A,-0.73,inactive
NT5C1A,0.07,inactive
NT5C1A,-1.04,inactive
NT5C1A,0.73,inactive
CFAP100,2.01,inactive
CFAP100,1.03,inactive
CFAP100,0.62,inactive
CFAP100,0.08,inactive
PPP2R2B,-0.23,inactive
PPP2R2B,0.16,inactive
PPP2R2B,-0.5,inactive
PPP2R2B,0.38,inactive
DNAL4,-0.02,inactive
DNAL4,-0.01,inactive
DNAL4,-0.11,inactive
DNAL4,-0.89,inactive
BNIP3,-0.75,inactive
BNIP3,-0.11,inactive
BNIP3,-0.13,inactive
BNIP3,-0.47,inactive
